Data source: PubChem BioAssay AID686938 (Drosophila RNAi Screening Center, 2013)

Test: 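Fly genes required for calcium entry once internal stores are emptied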 (primary screen)
Cell system: Drosophila S2R+ cells
Reagents: long dsRNA against Drosophila genes, about 0.25 µg dsRNA per well, roughly 10,000 cells
Timing: 5 days of knock-down before the calcium assay
Conditions: thapsigargin (SERCA pump blocker) to empty calcium stores; entry signal taken 4 min after adding it
Detection: 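Per-well fluo-4 fluorescence in two replicates, unnormalised, measured in resting cells and 4 min after store depletion by the SERCA blocker thapsigargin; ratio of the two present in few wells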
Reading the numbers: calcium entry signal: higher = stronger calcium signal after store depletion; resting calcium signal: higher = higher resting calcium signal
Units: calcium entry signal in fluorescence units; resting calcium signal in fluorescence units
Active means: 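Hit if the duplicate-averaged plate z-score for entry over resting signal is under −3; wells with weak total dye signal (Fmax z < −2) or more than 5 off-targets removed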
Meaning of the calls: active = strongly reduced calcium entry; inactive = no strong reduction
In all, the deposit lists about 23,000 reagents; below is a random part of those that have a named target and a result. Over the whole deposit, 75 (0.33%) were called active. 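Raw plate signals without normalisation; calls rest on plate z-scores that were not deposited; ratio present for only 364 wells.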 Entries without a mark were called inactive. A plus sign joins genes that one reagent is predicted to hit. Reagent sequences are not shown. Not stated in the record: the dose of the treatment.

With knock-down of Or83c [DRSC12359], the record shows calcium entry signal, replicate 1 = 4.67e7; calcium entry signal, replicate 2 = 4.22e7; resting calcium signal, replicate 1 = 2.31e7; resting calcium signal, replicate 2 = 1.99e7.
After knock-down of Kebab [DRSC00827], the screen gave calcium entry signal, replicate 1 = 4.53e7; resting calcium signal, replicate 1 = 2.67e7.
For Mrp4 [DRSC14931] the deposit lists calcium entry signal, replicate 1 = 3.96e7; calcium entry signal, replicate 2 = 4.06e7; resting calcium signal, replicate 1 = 1.96e7; resting calcium signal, replicate 2 = 1.99e7.
With knock-down of tbrd-2 [DRSC07020] the results were calcium entry signal, replicate 1 = 3.19e7; calcium entry signal, replicate 2 = 3.04e7; resting calcium signal, replicate 1 = 1.42e7; resting calcium signal, replicate 2 = 1.48e7.
With knock-down of Agpat4 [DRSC10446] the results were calcium entry signal, replicate 1 = 4.62e7; calcium entry signal, replicate 2 = 7.47e7; resting calcium signal, replicate 1 = 2.08e7; resting calcium signal, replicate 2 = 2.83e7.
CG31820 [DRSC21318] gave calcium entry signal, replicate 1 = 2.00e7; calcium entry signal, replicate 2 = 2.60e7; resting calcium signal, replicate 1 = 1.09e7; resting calcium signal, replicate 2 = 1.21e7.
After knock-down of Nplp4 [DRSC00391] the results were calcium entry signal, replicate 1 = 2.55e7; calcium entry signal, replicate 2 = 2.29e7; resting calcium signal, replicate 1 = 1.21e7; resting calcium signal, replicate 2 = 9.74e6.
Against dpr20 [DRSC08265], the values are calcium entry signal, replicate 1 = 2.45e7; calcium entry signal, replicate 2 = 2.20e7; resting calcium signal, replicate 1 = 1.20e7; resting calcium signal, replicate 2 = 1.13e7.
Depletion of CG16825 [DRSC02526] came out at: calcium entry signal, replicate 1 = 2.81e7; calcium entry signal, replicate 2 = 1.87e7; resting calcium signal, replicate 1 = 1.40e7; resting calcium signal, replicate 2 = 9.00e6.
With knock-down of CG8046 [DRSC07059], the record shows calcium entry signal, replicate 1 = 2.43e7; calcium entry signal, replicate 2 = 1.84e7; resting calcium signal, replicate 1 = 1.05e7; resting calcium signal, replicate 2 = 9.35e6.
Depletion of polo [DRSC11384] came out at: calcium entry signal, replicate 1 = 3.05e7; calcium entry signal, replicate 2 = 7.25e7; resting calcium signal, replicate 1 = 1.47e7; resting calcium signal, replicate 2 = 3.30e7.
With knock-down of polo [DRSC22359], the screen gave calcium entry signal, replicate 1 = 2.32e7; calcium entry signal, replicate 2 = 3.98e7; resting calcium signal, replicate 1 = 1.64e7; resting calcium signal, replicate 2 = 2.52e7.
After knock-down of Pcf11 [DRSC05983], the screen gave calcium entry signal, replicate 1 = 1.31e7; calcium entry signal, replicate 2 = 2.85e7; resting calcium signal, replicate 1 = 9.98e6; resting calcium signal, replicate 2 = 1.67e7.
Silencing of CG8006 [DRSC10949] resulted in: calcium entry signal, replicate 1 = 3.62e7; calcium entry signal, replicate 2 = 2.22e7; resting calcium signal, replicate 1 = 2.49e7; resting calcium signal, replicate 2 = 1.06e7.
With knock-down of Pgant2 [DRSC00587] the results were calcium entry signal, replicate 1 = 3.21e7; calcium entry signal, replicate 2 = 3.17e7; resting calcium signal, replicate 1 = 1.54e7; resting calcium signal, replicate 2 = 1.45e7.
Gpo1 [DRSC07128] gave calcium entry signal, replicate 1 = 2.82e7; calcium entry signal, replicate 2 = 2.55e7; resting calcium signal, replicate 1 = 1.41e7; resting calcium signal, replicate 2 = 1.53e7.
With knock-down of EMRE [DRSC06686] the results were calcium entry signal, replicate 1 = 5.05e7; calcium entry signal, replicate 2 = 5.57e7; resting calcium signal, replicate 1 = 2.03e7; resting calcium signal, replicate 2 = 2.54e7.
Silencing of CG12268 [DRSC14491] came out at: calcium entry signal, replicate 1 = 6.37e7; calcium entry signal, replicate 2 = 7.89e7; resting calcium signal, replicate 1 = 3.03e7; resting calcium signal, replicate 2 = 2.69e7.
piwi [DRSC03592] showed calcium entry signal, replicate 1 = 4.17e7; resting calcium signal, replicate 1 = 1.91e7.
For lncRNA:CR31044 [DRSC22451] the deposit lists calcium entry signal, replicate 1 = 2.93e7; calcium entry signal, replicate 2 = 2.91e7; resting calcium signal, replicate 1 = 1.71e7; resting calcium signal, replicate 2 = 1.35e7.
CkIIbeta2 [DRSC07361] showed calcium entry signal, replicate 1 = 5.05e7; calcium entry signal, replicate 2 = 5.40e7; resting calcium signal, replicate 1 = 2.30e7; resting calcium signal, replicate 2 = 2.64e7.
CG30020 [DRSC06252] showed calcium entry signal, replicate 1 = 3.80e7; calcium entry signal, replicate 2 = 1.93e7; resting calcium signal, replicate 1 = 1.73e7; resting calcium signal, replicate 2 = 1.10e7.
Depletion of CG30020 [DRSC06730] gave: calcium entry signal, replicate 1 = 3.89e7; calcium entry signal, replicate 2 = 4.80e7; resting calcium signal, replicate 1 = 1.89e7; resting calcium signal, replicate 2 = 1.95e7.
With knock-down of CG12477 [DRSC09886], the record shows calcium entry signal, replicate 1 = 3.28e7; calcium entry signal, replicate 2 = 5.06e7; resting calcium signal, replicate 1 = 1.78e7; resting calcium signal, replicate 2 = 2.01e7.
With knock-down of otk [DRSC07658], the screen gave calcium entry signal, replicate 1 = 3.30e7; calcium entry signal, replicate 2 = 3.93e7; resting calcium signal, replicate 1 = 1.72e7; resting calcium signal, replicate 2 = 1.99e7.
Silencing of asRNA:CR43463 + Pgant35A [DRSC03557] came out at: calcium entry signal, replicate 1 = 4.74e7; calcium entry signal, replicate 2 = 4.66e7; resting calcium signal, replicate 1 = 2.13e7; resting calcium signal, replicate 2 = 2.24e7.
aft [DRSC07576] gave calcium entry signal, replicate 1 = 3.33e7; calcium entry signal, replicate 2 = 3.69e7; resting calcium signal, replicate 1 = 1.57e7; resting calcium signal, replicate 2 = 1.68e7.
